The list shows a part of the results. Further columns of the screen follow, without active or inactive calls. The list favours compounds with an active or inconclusive main result. Words in brackets tell the shape of the fitted curve; partial curves, single points and poor fits give uncertain potencies.
Test: qHTS Assay to Find Inhibitors of Chronic Active B-Cell Receptor Signaling
Settings: ABC-DLBCL IkBa-CBG/CBR reporter, luminescence ratio (green luciferase fused to IkBa over red control in TMD8 lymphoma cells), 4 h
Procedure, shortened: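 Doxycycline induced both beetle luciferases in TMD8 lymphoma cells; IKK-driven degradation limits the IkappaBalpha-fused green signal, while red luminescence normalises for cell number and nonspecific effects. Compounds tested up to 46 uM, 4 hrs.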

[1] = measured here: CBR red luminescence, cell number
[2] = measured here: IkBa-CBG green luminescence

| Compound | AC50 [1] | AC50 [2] |
| --- | --- | --- |
| COC(=O)c1ccccc1NC(=S)NC(=O)C1CC1 | 16.4 µM [falling, single point] |  |
| O=C(c1ccc(Br)cc1)c1cc([N+](=O)[O-])ccc1N1CCCCC1 | 2.82 µM [rising, full curve] | 2.51 µM [falling, full curve] |
| Cc1cccc(OCc2nc(-c3nonc3N)no2)c1C | 0.92 µM [rising, full curve, poor fit] |  |
| Nc1ccc2c(c1)sc1ccccc12 | 11.6 µM [rising, partial curve] |  |
| CCOC(=O)Cc1cc(=O)n2[nH]c(C)c(-c3ccc(OC)cc3)c2n1 | 29.1 µM [falling, single point] |  |
| COc1ccc2c(c1)c(/C=N/Nc1ccc(C(=O)O)cc1)c(C)n2C | 0.794 µM [falling, full curve] |  |
| Cc1nc(N2CCCCC2)c2c(-c3cccs3)csc2n1 | 12.6 µM [rising, partial curve, poor fit] |  |
| O=C(O)c1ccc(N/N=C/c2ccc(F)c(F)c2)cc1 | 0.00651 µM [falling, full curve, poor fit] |  |
| FC(F)(F)c1cc(-c2cccs2)nc(-n2cc(Cl)cn2)n1 | 16.4 µM [falling, partial curve, poor fit] |  |
| O=C1CCN(C(=O)c2ccccc2)C2CCCCC12 (configuration not stated) | 0.092 µM [rising, full curve, poor fit] |  |
| CC(C)(C)NC(=O)COC(=O)c1ccccc1NC(=O)c1ccco1 | 35.5 µM [falling, single point] |  |
| COc1cccc(CC(=O)OCC(=O)N(C)CC(=O)Nc2ccc(Cl)c(C(F)(F)F)c2)c1 | 8.2 µM [falling, partial curve, poor fit] |  |
| Nc1ccc(Cc2ccc(N)c(O)c2)cc1O | 20 µM [rising, single point] |  |
| N#C/C(=C/c1ccc(-c2cc(C(=O)O)cc(C(=O)O)c2)o1)c1nc2ccccc2s1 | 3.98 µM [falling, partial curve] |  |
| Cc1ccc(S(=O)(=O)Nc2ccc(Br)cc2C(NCC(=O)O)c2ccccc2)cc1 (configuration not stated) | 2.91 µM [rising, single point] |  |
| COC(=O)c1ccccc1NC(=O)CSc1nnc(-c2ccc(C)cc2)o1 | 2.59 µM [falling, full curve] |  |
| Cc1sc2nc(C3CC3)nc(N3CCN(C(=O)c4ccccc4F)CC3)c2c1C | 10 µM [falling, partial curve, poor fit] |  |
| O=C(c1cc(-c2ccc(Br)cc2)nc2ccccc12)N1CCC1 | 5.8 µM [rising, partial curve, poor fit] |  |
| Oc1ccc(Br)cc1C=Nc1ccc(Cl)cc1 | 1.41 µM [falling, partial curve, poor fit] |  |
| COc1cc(CN(C)c2ccc(S(=O)(=O)N3CCCC3)cn2)ccc1OC(F)F | 18.4 µM [rising, single point] |  |
| O/N=C/c1ccccc1OCc1ccccc1F | 2.31 µM [rising, partial curve, poor fit] |  |
| Cc1c(CCC(=O)N2CCC[C@H]2C(=O)O)c(=O)oc2cc3oc4c(c3cc12)CCCC4 | 2.82 µM [rising, partial curve, poor fit] | 3.16 µM [falling, full curve] |

| Compound | AC50 [1] | AC50 [2] |
| --- | --- | --- |
| Oc1ccc(-c2nnc(-c3ccc(O)cc3)nn2)cc1 | 0.0517 µM [falling, full curve] | 0.0184 µM [rising, full curve] |
| O=C(CSc1ccc(Cl)cc1)Nc1ccccc1N1CCN(C(=O)c2ccc(Cl)cc2)CC1 | 8.2 µM [falling, partial curve, poor fit] |  |
| C(C#CCCCCCCCCC[n+]1ccccc1)#CCCCCCCCCC[n+]1ccccc1 | 35.5 µM [falling, single point] |  |
| CC1=NN(C(=O)c2ccc(Cn3cc(Br)c([N+](=O)[O-])n3)o2)C(O)(C(F)(F)F)C1 (configuration not stated) | 25.9 µM [falling, single point] |  |
| CC1(C)CC(=O)C2=C(C1)N(c1ccc(F)cc1)C(=O)CC2c1ccsc1 (configuration not stated) | 6.51 µM [falling, partial curve, poor fit] |  |
| CC(=O)c1ccc(N2CCC(c3cc(-c4ccc(Cl)cc4)n[nH]3)CC2)c([N+](=O)[O-])c1 | 20 µM [falling, single point] |  |
| CCCOc1ccc(C(=O)Nc2ccc(Cl)cn2)cc1 | 29.1 µM [falling, single point] |  |
| CCOc1ccc(S(=O)(=O)N2CCN(C(=O)c3cccn3C)CC2)cc1 | 0.103 µM [falling, full curve, poor fit] |  |
| O=C(Cc1cccc2ccccc12)Nc1ccc(N2CCOCC2)cc1 | 5.62 µM [rising, partial curve, poor fit] |  |
| CCc1ccccc1NC(=O)c1ccc(OCc2c(C)noc2C)cc1 |  | 13 µM [falling, partial curve, poor fit] |
| COc1cccc(C(=O)Nc2nnc(S(=O)(=O)Nc3cccc(C)c3)s2)c1 | 35.5 µM [falling, single point] |  |
| CCc1c(C)nc2cc(-c3cccs3)[nH]n2c1=O | 14.6 µM [rising, partial curve, poor fit] |  |
| O=C(NNC1=C(C(=O)C(F)(F)F)CCC1)c1cccnc1 | 11.2 µM [falling, partial curve] |  |
| CCN1C=C(Cc2ccc(OC)cc2)C2=C(C1)C(c1ccc(OC)cc1)C(C#N)=C(N)O2 (configuration not stated) | 3.98 µM [falling, partial curve] |  |
| O=C(CCC(=O)N1CCOCC1)Nc1nnc(C2CCCCC2)s1 | 8.2 µM [rising, partial curve, poor fit] |  |
| O=C(NC[C@@H]1CC[C@@H](Cc2ccc(-c3ccccc3)cc2)O1)Nc1ccc(Br)cc1 | 16.4 µM [rising, partial curve] |  |
| O=C1CN(C(=O)c2ccccc2F)C(c2ccccc2)c2cc(F)ccc2N1 (configuration not stated) | 25.1 µM [falling, single point] |  |
| CCCc1nnc2n1N=C(c1ccc(-c3cc(Cl)ccc3Cl)o1)CS2 | 16.4 µM [falling, single point] |  |
| CNc1c(NC(=O)COc2ccc(Cl)cc2)c(=O)oc2ccccc12 | 35.5 µM [falling, single point] |  |
| CCS(=O)(=O)N1Cc2ccccc2CC1C(=O)Nc1cccc(OC)c1 (configuration not stated) | 4.47 µM [falling, full curve, poor fit] |  |
| CNc1ccc(Br)cc(C(=O)/C=C/c2cc(OC)ccc2OC)c1=O | 0.164 µM [falling, full curve, poor fit] |  |
| O=S(=O)(Nc1ccccc1C(F)(F)F)c1ccc(-c2ccccn2)s1 | 2.82 µM [falling, single point] |  |

| Compound | AC50 [1] | AC50 [2] |
| --- | --- | --- |
| COc1cc(C(=O)Nc2cc(S(C)(=O)=O)ccc2Cl)ccc1OCC(=O)N1CCOCC1 | 25.9 µM [falling, single point] |  |
| O=C(O)c1cccc(Nc2ccc([N+](=O)[O-])cn2)c1 | 14.1 µM [falling, single point] |  |
| Cc1cc2c(c(=O)o1)C(c1cccs1)C(C#N)=C(N)O2 (configuration not stated) | 9.2 µM [falling, partial curve, poor fit] |  |
| Cc1ccccc1Nc1nc(Cl)c(C=O)s1 | 1.41 µM [falling, full curve] |  |
| COc1ccccc1CNC(=O)c1ccc2ccccc2n1 | 3.98 µM [falling, partial curve, poor fit] |  |
| O=C1NN(c2ccccc2)C(=O)/C1=C\c1coc2ccc(O)cc2c1=O | 10 µM [falling, single point] |  |
| Cc1ccc(Oc2nc3ccccn3c(=O)c2/C=C(\C#N)C(=O)NC2CCS(=O)(=O)C2)c(C)c1 (configuration not stated) | 11.2 µM [falling, partial curve] |  |
| Cc1nc(N)c(C#N)c(-c2ccccc2)c1C | 0.398 µM [falling, full curve] |  |
| S=C(NCc1ccc(Cl)cc1)NCc1ccco1 | 0.316 µM [rising, full curve, poor fit] |  |
| COC(=O)c1sccc1NC(=S)Nc1ccc(C)cc1 | 20 µM [falling, partial curve, poor fit] |  |
| Cc1ccc2cc3c(nc2c1)OCC3 | 6.31 µM [rising, single point] |  |
| CNc1nc(-c2c(C)[nH]c3ccc(OC)cc23)cs1 | 14.1 µM [rising, single point] |  |
| Cc1ccc(-c2nnc(-c3ccc(Br)cc3)o2)o1 | 16.4 µM [rising, partial curve, poor fit] |  |
| O=C(COC(=O)Cc1ccccc1F)NCCNC(=O)COC(=O)Cc1ccccc1F | 32.6 µM [rising, partial curve, poor fit] |  |
| COc1ccc(NC(=O)N/C=C/c2ccccc2)cc1 | 1.41 µM [rising, partial curve, poor fit] |  |
| Cn1c(SCC(=O)Nc2sccc2C#N)nnc1-c1ccccc1 | 6.51 µM [rising, single point] |  |
| Cc1cc(C)c2nc(N3CCC(C(=O)NCCCN4CC(C)CC(C)C4)CC3)sc2c1 (configuration not stated) | 15.8 µM [falling, partial curve, poor fit] |  |
| NC(N)=N/N=C/c1ccc(OS(=O)(=O)c2ccccc2)cc1 | 15.8 µM [falling, single point] |  |
| Cc1cccc(NC(=O)C2CCCN(S(=O)(=O)c3cccc4nsnc34)C2)n1 (configuration not stated) | 3.66 µM [rising, single point] |  |
| O=C1C2C3C=CC(C3)C2C(=O)N1CC1CCCO1 (configuration not stated) | 1.64 µM [rising, partial curve, poor fit] |  |

Entries from the list above that have an aryl thioether with sulfur outside any ring, in the order listed:

| Compound | AC50 [1] | AC50 [2] |
| --- | --- | --- |
| COC(=O)c1ccccc1NC(=O)CSc1nnc(-c2ccc(C)cc2)o1 | 2.59 µM [falling, full curve] |  |
| O=C(CSc1ccc(Cl)cc1)Nc1ccccc1N1CCN(C(=O)c2ccc(Cl)cc2)CC1 | 8.2 µM [falling, partial curve, poor fit] |  |
| Cn1c(SCC(=O)Nc2sccc2C#N)nnc1-c1ccccc1 | 6.51 µM [rising, single point] |  |

From PubChem BioAssay AID493014 (National Center for Advancing Translational Sciences (NCATS), 2011)
